Experimental data taken from PubChem BioAssay.
Inconclusive results, whose numbers are uncertain, are shown with a selection of clear calls. Where the call is inconclusive, the potency comes from a doubtful curve fit. Calls of active or inactive are those of the source. Unless noted, no cut-off is given here; in the data, nearly all actives have AC50 up to about 26 µM.

Experiments:
[1] = growth inhibition of DIPG glioma cells, dose response, cell-based, SU-DIPG-XVII, MIPE5.0, CellTiter-Glo, qHTS (AID 1347060); conditions: SU-DIPG-XVII viability, CellTiter-Glo ATP luminescence;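 for AC50: cells exposed to compound for 48 hours before viability readout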
[2] = growth inhibition of DIPG glioma cells, dose response, cell-based, JHH-DIPG-1, MIPE4.0, CellTiter-Glo, qHTS (AID 1347062; cut-off not given, nearly all actives have AC50 up to about 27 µM;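 for AC50: cells exposed to compound for two days before readout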); conditions: JHH-DIPG-1 viability, CellTiter-Glo ATP luminescence
[3] = growth inhibition of DIPG glioma cells, dose response, cell-based, SU-DIPG-IV, MIPE4.0, CellTiter-Glo, qHTS (AID 1347063; cut-off not given, nearly all actives have AC50 up to about 30 µM;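 note: compound exposure lasted 48 hours before the viability readout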); conditions: SU-DIPG-IV viability, CellTiter-Glo ATP luminescence
[4] = growth inhibition of DIPG glioma cells, dose response, cell-based, SU-DIPG-XIII, MIPE5.0, CellTiter-Glo, qHTS (AID 1347064; cut-off not given, nearly all actives have AC50 up to about 23 µM;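 for AC50: cells exposed to compound for 48 hours before the viability read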); conditions: SU-DIPG-XIII viability, CellTiter-Glo ATP luminescence
[5] = viability loss in pontine glioma line – cell-based, SU-DIPG-XXV, MIPE5.0, CellTiter-Glo, qHTS, dose response (AID 1347065); conditions: CellTiter-Glo ATP luminescence;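 note: cells exposed to compound for 48 hours before ATP readout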
[6] = JHH-DIPG-1 glioma cell viability, MIPE5.0 library, CellTiter-Glo luminescence, qHTS (AID 1347067); conditions: JHH-DIPG-1 glioma viability, CellTiter-Glo ATP luminescence;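 note: cells exposed to compound for 48 hours before readout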
[7] = SU-DIPG-VI glioma cell viability, MIPE4.0 library, CellTiter-Glo luminescence, qHTS (AID 1347066; cut-off not given, nearly all actives have AC50 up to about 30 µM;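 note: cells exposed to compound for 48 hours before readout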); conditions: CellTiter-Glo ATP luminescence
[8] = SU-DIPG-XXV glioma cell viability, MIPE5.0 library, qHTS (AID 1347068; cut-off not given, nearly all actives have IC50 up to about 30 µM;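 note: cells exposed to compound for 48 hours before viability readout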)

O=C(NCCO[N+](=O)[O-])c1cccnc1
inactive: outcome [1] | outcome [3] | outcome [5]
inconclusive: AC50 [2] 0.00418 µM | AC50 [4] 0.00468 µM | AC50 [6] 0.00132 µM

Cc1ccccc1C(=O)c1ccc(Nc2ccc(Br)cc2N)cc1Cl
inconclusive: AC50 [1] 0.00118 µM | AC50 [2] 26.4 µM [cytotoxic] | AC50 [3] 26.4 µM [cytotoxic] | AC50 [7] 33.2 µM [cytotoxic]
active: AC50 [4] 20.9 µM | AC50 [5] 18.6 µM

Clc1ccc(COC(Cn2ccnc2)c2ccc(Cl)cc2Cl)cc1 (stereo not drawn)
active: AC50 [1] 18.6 µM | AC50 [5] 16.6 µM
inconclusive: AC50 [2] 37.2 µM [cytotoxic] | AC50 [3] 33.2 µM [cytotoxic] | AC50 [4] 16.6 µM [cytotoxic] | AC50 [7] 37.2 µM [cytotoxic] | IC50 [8] 14.8 µM [cytotoxic]

Cc1c(NC(=O)c2ccc(C(C)(C)C)cc2)cccc1-c1cn(C)c(=O)c(Nc2ccc(C(=O)N3CCOCC3)cc2)n1
active: AC50 [3] 10.5 µM
inconclusive: AC50 [1] 0.0934 µM [cytotoxic] | AC50 [2] 6.62 µM [cytotoxic] | AC50 [4] 2.63 µM [cytotoxic] | AC50 [5] 14.8 µM [cytotoxic] | AC50 [6] 33.2 µM [cytotoxic]
inactive: outcome [7]

FC(F)(F)c1ccc(/C=C/c2nc(COc3ccc(CCCCn4ccnn4)cc3)co2)cc1
inactive: outcome [2] | outcome [4]
inconclusive: AC50 [1] 8.33 µM [cytotoxic] | AC50 [3] 0.00263 µM [cytotoxic] | AC50 [5] 0.0372 µM [cytotoxic] | AC50 [6] 0.0934 µM [cytotoxic] | IC50 [8] 0.235 µM [cytotoxic]
